Results are given in words; binding and its absence hold for the method and conditions named. Binding seen in cells or lysates may run through a third protein. Some entries that bind do so weakly or less than the wild type.
Experiments:
[1] = molecular target: human chemokine receptor CXCR2 tagged with mNeonGreen (human) (UniProt P25025); assay: condition: only with the small-molecule CXCR2 antagonist MVH-46 at high concentrations; FRET or BRET; NanoBRET (NanoLux) in live HEK293A cells as above, CXCL2 or CXCL6 stimulation, with the small-molecule antagonist MVH-46 at high concentrations
[2] = molecular target: human chemokine receptor CXCR2 tagged with mNeonGreen (human) (UniProt P25025); assay: FRET or BRET; NanoBRET (NanoLux) in live HEK293A cells co-transfected with β-arrestin1-NLuc (donor) and CXCR2-mNG (acceptor) 1:10; stimulated with ELR+ chemokines (CXCL1-3, CXCL5-8) at their EC80; 37°C; small-molecule antagonists pre-incubated 45 min (15-0.021 µM)

By UniProt entry, the sequences of proteins in these tests, tags left out.
UniProt P25025: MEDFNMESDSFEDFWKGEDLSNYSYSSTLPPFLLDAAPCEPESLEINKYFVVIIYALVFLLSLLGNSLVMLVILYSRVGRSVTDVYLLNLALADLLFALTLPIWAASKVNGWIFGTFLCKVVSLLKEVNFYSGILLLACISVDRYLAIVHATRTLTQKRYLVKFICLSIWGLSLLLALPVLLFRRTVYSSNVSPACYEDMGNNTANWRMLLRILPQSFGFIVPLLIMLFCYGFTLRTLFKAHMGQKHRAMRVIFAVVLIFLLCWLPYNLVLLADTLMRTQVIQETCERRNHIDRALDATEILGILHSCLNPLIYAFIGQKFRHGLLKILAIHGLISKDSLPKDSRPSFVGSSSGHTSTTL
UniProt P49407: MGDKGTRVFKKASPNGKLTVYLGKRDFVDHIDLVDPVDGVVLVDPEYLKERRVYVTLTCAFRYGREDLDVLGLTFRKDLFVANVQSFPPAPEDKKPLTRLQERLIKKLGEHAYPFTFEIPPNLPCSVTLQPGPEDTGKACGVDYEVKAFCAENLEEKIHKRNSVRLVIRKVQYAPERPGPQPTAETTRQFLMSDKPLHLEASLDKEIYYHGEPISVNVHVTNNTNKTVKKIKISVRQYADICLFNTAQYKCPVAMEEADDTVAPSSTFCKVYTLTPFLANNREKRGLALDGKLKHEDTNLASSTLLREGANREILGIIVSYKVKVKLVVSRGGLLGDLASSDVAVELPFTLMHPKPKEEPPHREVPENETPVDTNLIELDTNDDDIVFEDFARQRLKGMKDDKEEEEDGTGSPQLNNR

binding [1]: no binding | binding [2]: binds
Substance: β-arrestin1 tagged with nanoluciferase (from UniProt P49407 1-418)

— article PMC12301332, “Biased antagonism of a series of bicyclic CXCR2 intracellular allosteric modulators” (Frontiers in Pharmacology, 2025)
